Some of the results follow.
B1: il10ra_site1_sap_13_mot_HHH_b2_08287_af2_000000247_0001_1_16_H_._HHH_b2_05895_af2_0001_0000500020_0000002_0_0001 (protein)
chain: SSSSSEDERYLELSEMFARRLYENGDPEAARAILKAAIEIARKANDEETLERLEELLEEIGSSSS
B2: il10ra_site1_sap_21_mot_HHH_b1_05185_000000011_0001_22_39_H_._HHH_b1_07240_0001_0000600038_0000002_0_0001 (protein)
chain: SSSSSEELRRIMELIRRAAELDQNGNPEEARKLLEEAEELAEEAGNWAALFAVRHLLRIVNSSSS
B3: il10ra_site1_normal_mot_HHH_b2_02337_000000026_0001_38_52_H_._HHH_b2_05302_0001_0000300029_0000001_0 (protein)
chain: SSSSSDEEELREEVEELLEEARKIPDHREVAELLQRATHFALELGDQELLQEVWRVVRELSSSSS
B4: il10ra_site1_normal_mot_HHH_b2_04912_000000028_0001_1_20_H_._HHH_b2_04788_af2_0001_0000300025_0000001_0 (protein)
chain: SSSSDLSQRALELSKEAVRLALRGNPEEAEELLEEALKLAEEGGNEQLARVIEELLKALEISSSS
B5: il10ra_site1_sap_23_mot_1d093d8facd031590e769bfa2e47527f_0001_000000108_0001_1_11_H_._2421ffacfce1bf9a432afec7a76aa6a2_0001_0001_0000300007_0000001_0_0001 (protein)
chain: SSSSSEDEELLRAALRLAEQLLEHGDPKAARFILEAAILVAEELGDEETLEELQKLLEEVRSSSS
B6: il10ra_site1_normal_mot_HHH_b2_03438_af2_000000049_0001_18_34_H_._HHH_b2_02820_0001_0000300012_0000001_0_af2pred_0001 (protein)
chain: SSSSDEEERRSEELRQRVEEAEEEGDIHLVVRLLRELLEAAKELNDPELLKFIHEVIRSLSSSSS
B7: il10ra_site1_normal_mot_HHH_b1_08477_000000091_0001_40_57_H_._ems_p1-16H-GBL-16H-GABBL-16H_0045_0001_0001_0002_0001_0000200005_0000001_0_af2pred_0001 (protein)
chain: SSSSSRVELAAKVARRAAEEAGDEEAREKVEEVEEALERGEISEEEALELLAKISREIAESSSSS
B8: il10ra_site1_sap_22_mot_HHH_b2_01729_af2_000000109_0001_43_56_H_._HHH_b2_04334_0001_0000200014_0000002_0_0001_af2pred_0001 (protein)
chain: SSSSSDEREVEQLVRAALRLARQTSDPESRKRDLRAARLAAEENNDEEAKRLVQEFEEELSSSSS
B9: il10ra_site1_normal_mot_6792f2186577ebd01aa11eb855ed7b57_0001_af2_000000149_0001_1_16_H_._HHH_b1_00312_af2_0001_0000200004_0000001_0_af2pred_0001 (protein)
chain: SSSSSSDEEEKLEQLLEELEETTDPEELLEIAREISKLAVRANDREFAERAIEILIKSSSSSSSS
B10: il10ra_site1_sap_16_mot_HHH_b1_00999_000000080_0001_41_55_H_._HHH_b2_05851_af2_0001_0000800033_0000001_0_0001_af2pred_0001 (protein)
chain: SSSSSEEEERVLELLLKVYRLLKEGDEEKAEEILREAEELAKEINDPRLRKAVKFYKDALSSSSS
B11: il10ra_site1_sap_26_mot_HHH_b2_03434_000000017_0001_1_19_H_._HHH_b1_00511_af2_0001_0000200009_0000001_0_0001 (protein)
chain: SSSSDKEENEELLEELERLIEEGDHEEALELAQEALRILIQNNDPEALRLLWELVKEIAKISSSS
B12: il10ra_site1_normal_mot_2c1a291787c6f40772924d4e9068d803_0001_af2_000000187_0001_34_48_H_._HHH_b2_04100_0001_0000400022_0000002_0 (protein)
chain: SSSSDEEDRLVFEVAAQAYLLFDKGNEEEARKVLKELEELAEELNDPRARLYVRALEELLSSSSS
B13: il10ra_site1_sap_22_mot_HHH_b1_08593_000000040_0001_43_57_H_._HHH_b2_06751_0001_0000100019_0000001_0_0001 (protein)
chain: SSSSDEEEEELEELVELLKKLLKEGDRERFAETAQRALRIAFQLSDPEALRELWELVRRAASSSS
B14: il10ra_site1_sap_19_mot_HHH_b1_05860_000000142_0001_1_19_H_._HHH_b1_04670_af2_0001_0000600070_0000001_0_0001 (protein)
chain: SDEEEAERILEKIKELAEEKNDEEVKVAVRFWERLDEDAKKLNNEEAVKSITWAAEALLELVEKS
B15: il10ra_site1_sap_24_mot_HHH_b2_03708_000000000_0001_1_18_H_._HHH_b1_06878_af2_0001_0000700017_0000001_0_0001 (protein)
chain: SSSSSSSNEEALEFLIWALEAATTEQQREAALRFLEAMARWLNDEEAEEVVEEFKERHSSSSSSS
B16: il10ra_site1_normal_mot_3c6ad1a4bc7d4f5cf55cee527202d42a_0001_000000108_0001_32_49_H_._HHH_b2_03602_af2_0001_0000600008_0000001_0_af2pred_dldesign_0_af2pred (protein)
chain: SSSSSDKEYYDALVKYYKEALALGKPEAAEKIALKGAEMRLEGKSLEEFEEKAKEILEEESSSSS
B17: il10ra_site1_sap_20_mot_HHH_b1_03262_af2_000000181_0001_43_57_H_._HHH_b1_08156_0001_0000100008_0000001_0_0001 (protein)
chain: SSSSDEAEEEVEELLEEAKRIEDPRELNEVLLRATQIALENNNPELLRLVWEVFRELVEGSSSSS
B18: il10ra_site1_normal_mot_HHH_b2_00108_000000012_0001_38_56_H_._HHH_b2_04021_0001_0000100005_0000002_0_af2pred_0001 (protein)
chain: SSSSSKEVASRFWRLSLKLLLEAGNEEDLKAALKAAEEAARQFNDEELEEEVEEIERELKSSSSS
B19: il10ra_site1_normal_mot_8756ee2cf497b5429c717dfc0c0bcfd6_0001_000000186_0001_1_13_H_._HHH_b1_02427_af2_0001_0000600028_0000001_0 (protein)
chain: SSSSDLEELFEILRRAAEALHEGNPEEAEKLLEEAREIAERLNNDVFRAQIEYLERQVEELSSSS
B20: il10ra_site1_normal_mot_HHH_b1_05021_af2_000000076_0001_42_56_H_._HHH_b1_01424_0001_0000300015_0000001_0_af2pred_0001 (protein)
chain: SSSSDESAELARRAVKLAVEIEEDPRRKEELEEEIEELLELLEELGNKTAVLSVEYMLELLSSSS
B21: il10ra_site1_sap_20_mot_HEEHE_1605_000000211_0001_40_56_H_._544ef0e38e907b7890d4414ebae48784_0001_1_0001_0000300011_0000001_0_0001 (protein)
chain: SSSSSEEEERLEELEEQLEEAVREGDRELVLELIQEILRLAYQLRDEEVLRELWEILRKLSSSSS
B22: il10ra_site1_sap_14_mot_HHH_b1_05357_000000034_0001_23_39_H_._HHH_b1_02749_0001_0000100001_0000002_0_0001 (protein)
chain: DEVEELIEELRKEGDPYAEELLEQLEHLERRDPWHARQVLMVFELLVRQLGDPREAVKDLVKIMR
B23: il10ra_site1_normal_mot_HHH_b2_01310_000000089_0001_41_55_H_._HHH_b2_00518_0001_0000400010_0000001_1 (protein)
chain: SSSSSEDEERIRELLEEAEEALEEGDREKAVRLLLEATQIAFENNNAEILQEVWEVARRLVSSSS
B24: il10ra_site1_normal_mot_HHH_b1_02397_af2_000000085_0001_39_57_H_._HHH_b2_00311_0001_0000500034_0000001_0 (protein)
chain: SSSSSSDLEELLEELEQLLEEGDHERFAEVALRILRLAFRLSDPEVLQAVWELVQRLASSSSSSS
B25: il10ra_site1_sap_28_mot_HHH_b2_08004_000000101_0001_1_17_H_._HHH_b1_01468_0001_0000100008_0000001_0_0001_af2pred_dldesign_0_af2pred (protein)
chain: SSSSSPEDLATARRLLEYAKFLKEAGDMESVKVAYDAIKTLAELTNNPEIKAILEEIKSLLSSSS
B26: il10ra_site1_normal_mot_HHH_b1_06816_000000239_0001_1_19_H_._HHH_b1_07754_0001_0000400009_0000002_0 (protein)
chain: SSSSSSDREEEAEELLEELKQIPDPDERFKLAREAIQLAVEAGDPELARRISRLAAELSSSSSSS
B27: il10ra_site1_sap_15_mot_HHH_b1_05860_000000142_0001_1_19_H_._HHH_b1_01898_0001_0000200013_0000001_1_0001 (protein)
chain: SSSSSNERELLEAALRIIEQILEIGDPEAARRMLRALKRVAEQANDEEIEREVERLEEELSSSSS
B28: il10ra_site1_normal_mot_HHH_b2_06979_000000158_0001_42_57_H_._HHH_b2_06735_af2_0001_0000400035_0000001_0 (protein)
chain: SSSSDAELSQEAIRIIREAAELFRNGNPEEARELLEELREELEKAGNRLLLINVEYLLRDLSSSS
B29: il10ra_site1_sap_25_mot_HHH_b2_05111_af2_000000002_0001_42_56_H_._HHH_b1_02823_0001_0000300034_0000001_0_0001_af2pred_0001 (protein)
chain: DPRKEELEEEIERVLEEFEKGKIDPEQAEELLAELIYIAARLGDEEALKLALQAFAKIRKALQES
B30: il10ra_site1_sap_15_mot_e1dd4851c59bc1cdde016f988f6856bd_0001_1_000000200_0001_16_31_H_._HEEHE_1920_af2_0001_0000300004_0000001_1_0001 (protein)
chain: SSSSDLYEHVERLIEEVDRLLREGDKEEAEEVLKELEEFAKRHNDWVARAVVELLERLIEGSSSS
B31: il10ra_site1_normal_mot_HHH_b1_05357_000000034_0001_23_39_H_._HHH_b1_07367_af2_0001_0000600023_0000001_0_af2pred_0001 (protein)
chain: SSSSDEEAEEIEEELEELLKRGDLEEAKKLLRRLLELAVHLRDPELAYAAIRIFAIINRLSSSSS
B32: il10ra_site1_sap_14_mot_HHH_b2_04680_000000215_0001_1_16_H_._HHH_b1_04704_0001_0000200020_0000001_0_0001_af2pred_dldesign_0_af2pred (protein)
chain: SAELRARLLAVLTEVLGDPALAQAVLDHLEAQAGGDPRAIAERARALLELLGREEAAARVRELLE
B33: il10ra_site1_normal_mot_HHH_b1_06994_000000193_0001_40_55_H_._HHH_b1_03549_af2_0001_0000100003_0000001_0 (protein)
chain: SSSSDQEEELFEAVQRLLEQAEEHGDERLLRALLIALRKLAELLKDPELEEIVKRLEEELSSSSS
B34: il10ra_site1_normal_mot_HHH_b1_01011_000000096_0001_1_19_H_._HHH_b1_01500_0001_0000100003_0000001_0_1_af2pred_0001 (protein)
chain: SSSSSREEEALRLSLKFVRFLLKQGDPEAAEFILRAAKQLAERSNDEELLEEIRELLKELNSSSS
B35: il10ra_site1_normal_mot_HHH_b1_04592_af2_000000261_0001_39_52_H_._HHH_b1_05275_af2_0001_0000300010_0000001_1_af2pred_0001 (protein)
chain: SSSSNEVKEEVAKLLAEAFLAAMKGNPEEVEELLREAEEVAREHNDPQAENLVRVVKRLLSSSSS
B36: il10ra_site1_sap_13_mot_HHH_b2_03220_af2_000000223_0001_23_40_H_._6d8c65c56f735b695b51d067c36b126f_0001_0001_0000400010_0000001_1_0001 (protein)
chain: SSSSEEERVKELREEIEELEEEGDTERVLEILQEILRLIYQLGDEEKLRELWEILKRLAEERSSS
B37: il10ra_site1_normal_mot_HHH_b1_06837_000000150_0001_20_37_H_._HHH_b2_04232_0001_0000100011_0000001_0_af2pred_dldesign_0_af2pred (protein)
chain: SSSSSSPTEELVALIREAAELLGEGKYEEAKELLDKAKELAEKQNNPLALAALARLEKELSSSSS

These binders were tested against il10ra, Q13651 (assay: yeast display titration).

Apparent Kd, inactive:
B1 no binding seen
B2 no binding seen
B3 no binding seen
B4 no binding seen
B5 no binding seen
B6 no binding seen
B7 no binding seen
B8 no binding seen
B9 no binding seen
B10 no binding seen
B11 no binding seen
B12 no binding seen
B13 no binding seen
B14 no binding seen
B15 no binding seen
B16 no binding seen
B17 no binding seen
B18 no binding seen
B19 no binding seen
B20 no binding seen
B21 no binding seen
B22 no binding seen
B23 no binding seen
B24 no binding seen
B25 no binding seen
B26 no binding seen
B27 no binding seen
B28 no binding seen
B29 no binding seen
B30 no binding seen
B31 no binding seen
B32 no binding seen
B33 no binding seen
B34 no binding seen
B35 no binding seen
B36 no binding seen
B37 no binding seen

Three entries drawn at random from the list so far, as already listed:
Apparent Kd, inactive:
B15 no binding seen
B28 no binding seen
B10 no binding seen

Reference: paper PMC10163288
